Assay results from paper PMC4947123.
No constants are given. Whether binding was seen depends on the method and setting. Binding seen in cells or lysates may run through a third protein. Here binding means that the protein was enriched with, or labelled near, the bait; the list need not be complete. For some of these results: No binding means not detected with the bait.

Amino acid sequences for entries named in this document (tags omitted). A change or cut given only in a name is not applied to a line headed by its entry.
UniProt Q9UHD9: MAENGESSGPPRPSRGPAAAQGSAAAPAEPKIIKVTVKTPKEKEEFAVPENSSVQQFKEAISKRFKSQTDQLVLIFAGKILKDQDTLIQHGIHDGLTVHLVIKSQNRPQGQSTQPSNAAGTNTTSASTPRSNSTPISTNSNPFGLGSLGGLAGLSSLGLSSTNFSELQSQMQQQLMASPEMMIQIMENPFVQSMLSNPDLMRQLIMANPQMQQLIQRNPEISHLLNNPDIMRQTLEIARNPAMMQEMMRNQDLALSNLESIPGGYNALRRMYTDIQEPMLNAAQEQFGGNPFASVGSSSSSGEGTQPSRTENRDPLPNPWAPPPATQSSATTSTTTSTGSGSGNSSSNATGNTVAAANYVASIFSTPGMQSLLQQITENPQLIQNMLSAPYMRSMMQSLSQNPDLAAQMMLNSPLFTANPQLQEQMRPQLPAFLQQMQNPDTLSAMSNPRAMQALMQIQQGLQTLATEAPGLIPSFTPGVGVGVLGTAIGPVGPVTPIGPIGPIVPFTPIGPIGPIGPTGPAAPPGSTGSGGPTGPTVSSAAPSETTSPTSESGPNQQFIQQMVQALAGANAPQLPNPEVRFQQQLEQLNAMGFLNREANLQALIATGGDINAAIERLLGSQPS
UniProt Q96CV9: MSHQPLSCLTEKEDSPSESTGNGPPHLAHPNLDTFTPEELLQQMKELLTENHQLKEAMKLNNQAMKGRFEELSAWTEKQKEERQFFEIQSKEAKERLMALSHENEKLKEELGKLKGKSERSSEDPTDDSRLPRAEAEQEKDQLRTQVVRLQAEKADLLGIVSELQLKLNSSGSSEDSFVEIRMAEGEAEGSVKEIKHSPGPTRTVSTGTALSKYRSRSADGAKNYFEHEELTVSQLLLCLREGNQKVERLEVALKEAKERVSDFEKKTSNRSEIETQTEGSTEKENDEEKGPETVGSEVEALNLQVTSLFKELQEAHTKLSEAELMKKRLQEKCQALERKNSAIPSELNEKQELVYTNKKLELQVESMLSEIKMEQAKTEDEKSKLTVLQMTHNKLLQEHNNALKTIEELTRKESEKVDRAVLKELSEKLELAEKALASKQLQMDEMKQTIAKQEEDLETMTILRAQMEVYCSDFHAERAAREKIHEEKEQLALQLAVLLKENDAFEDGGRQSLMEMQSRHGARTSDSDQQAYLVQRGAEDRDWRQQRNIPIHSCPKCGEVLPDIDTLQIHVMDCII
UniProt Q96LT7: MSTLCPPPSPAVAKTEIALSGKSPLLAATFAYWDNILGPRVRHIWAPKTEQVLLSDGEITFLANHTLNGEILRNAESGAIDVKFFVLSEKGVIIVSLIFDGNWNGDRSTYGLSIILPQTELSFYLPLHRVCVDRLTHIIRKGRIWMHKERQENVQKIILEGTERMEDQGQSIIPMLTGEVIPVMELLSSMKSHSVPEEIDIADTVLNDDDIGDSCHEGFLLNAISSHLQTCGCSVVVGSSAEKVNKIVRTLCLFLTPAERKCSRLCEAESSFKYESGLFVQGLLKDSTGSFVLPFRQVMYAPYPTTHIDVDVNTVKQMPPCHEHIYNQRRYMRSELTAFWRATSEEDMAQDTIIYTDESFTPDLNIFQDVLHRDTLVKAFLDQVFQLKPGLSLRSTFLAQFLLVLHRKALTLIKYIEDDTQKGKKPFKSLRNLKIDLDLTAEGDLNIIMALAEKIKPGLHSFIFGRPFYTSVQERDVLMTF

Tests used:
Experiment in all cases: affinity purification with mass spectrometry; bioGFP-tagged bait co-transfected with BirA in N2A cells; captured from lysate with magnetic streptavidin beads; gel, LC-MS/MS, MaxQuant, PERSEUS, Welch's t test with FDR 0.01 and S0 1.5, triplicate, against GFP or wild type
[1] = target: bioGFP-tagged UBQLN2 wild-type (UniProt Q9UHD9)
bioGFP-tagged OPTN E478G = bioGFP-tagged OPTN E478G (UniProt Q96CV9)
[2] = target: bioGFP-tagged OPTN wild-type (UniProt Q96CV9)
bioGFP-tagged C9orf72 = bioGFP-tagged C9orf72 (UniProt Q96LT7)

| Binder | binding [1] | binding (bioGFP-tagged OPTN E478G) | binding [2] | binding (bioGFP-tagged C9orf72) |
| --- | --- | --- | --- | --- |
| ATPase WRNIP1 (Wrnip1) (protein, UniProt Q91XU0 1-660) MEVSGPEDDPFLSQLHQVQCPVCQQMMPAAHINSHLDRCLLLHPAGHAEPAAGSHRAGERAKGPSPPGAKRRRLSESSALKQPATPTAAESSEGEGEEGDDGGETESRESYDAPPTPSGARLIPDFPVARSSSPARKGMGKRPAAAAAAGSASPRSWDEAEAQEEEEAGVDGDGDADVDGEDDPGHWDADAADASFGVSAGRAHPRALAAEEIRQMLEGKPLADKMRPDTLQDYIGQSRAVGQETLLRSLLEANEIPSLILWGPPGCGKTTLAHIIANNSKKHSIRFVTLSATNAKTNDVRDVIKQAQNEKSFFKRKTILFIDEIHRFNKSQQDTFLPHVECGTITLIGATTENPSFQVNAALLSRCRVIVLEKLPVEAMVTILMRAINSLGIHVLDSSRPTDPLSHSSNCSSEPSVFIEDKAVDTLAYLSDGDARTGLNGLQLAVLARLSSRKVFCKKSGQTYSPSRVLITENDVKEGLQRSHILYDRAGEEHYNCISALHKAMRGSDQNASLYWLARMLEGGEDPLYVARRLVRFASEDIGLADPSALAQAVAAYQGCHFIGMPECEVLLAQCVVYFARAPKSIEVYSAYNNVKACLRSHQGPLPPVPLHLRNAPTRLMKDLGYGKGYKYNPMYSEPVDQDYLPEELRGVDFFKQRRC | – | no binding | binds | – |
| Ataxin-10 (Atxn10) (protein, UniProt P28658 1-475) MAAPRMPPSRLSGIMVPAPIQDLEALRALTALFKEQRNRETAPRTIFQRVLDILKKSTHAVELACRDPSQVEHLASSLQLITECFRCLRNACIECSVNQNSIRNLDTIGVAVDLVLLFRELRVEQDSLLTAFRCGLQFLGNVASRNEESQSIVWVHAFPELFMSCLNHPDKKIVAYCSMILFTSLNAERMKDLEENLNIAINVIEAHQKHPASEWPFLIISDHFLKSPELVEAMYGKLSNQERITLLDIVIAKLVGEEQLTKDDISIFVRHAELIANSFMDQCRNVLKLTSEPHTEDKEALVTIRLLDVLCEMTSNTELLGYLQVFPGLMERVIDVLRVIHEVGKESTNIFSPSDSLKAEGDIEHMTEGFKSHLIRLIGNLCYKNKENQDKVNELDGIPLILDSSNIDDNNPFMMQWVVYAVRNLTEDNSQNQDVIAKMEEQGLADASLLKKMGFEIEKSGDKLILKSNNDIPPP | binds | – | – | – |
| Slc16a1 (protein, UniProt P53986 1-493) MPPAIGGPVGYTPPDGGWGWAVLVGAFISIGFSYAFPKSITVFFKEIEVIFSATTSEVSWISSIMLAVMYAGGPISSILVNKYGSRPVMIAGGCLSGCGLIAASFCNTVQELYLCIGVIGGLGLAFNLNPALTMIGKYFYKKRPLANGLAMAGSPVFLSTLAPLNQAFFDIFDWRGSFLILGGLLLNCCVAGSLMRPIGPEQVKLEKLKSKESLQEAGKSDANTDLIGGSPKGEKLSVFQTINKFLDLSLFTHRGFLLYLSGNVVMFFGLFTPLVFLSSYGKSKDFSSEKSAFLLSILAFVDMVARPSMGLAANTKWIRPRIQYFFAASVVANGVCHLLAPLSTTYVGFCVYAGVFGFAFGWLSSVLFETLMDLIGPQRFSSAVGLVTIVECCPVLLGPPLLGRLNDMYGDYKYTYWACGVILIIAGIYLFIGMGINYRLLAKEQKAEEKQKREGKEDEASTDVDEKPKETMKAAQSPQQHSSGDPTEEESPV | – | – | – | binds |
| solute carrier family (Slc)25a3 (protein, UniProt Q8VEM8 46-357) AVEEYSCEFGSMKYYALCGFGGVLSCGLTHTAVVPLDLVKCRMQVDPQKYKGIFNGFSITLKEDGVRGLAKGWAPTLIGYSMQGLCKFGFYEVFKALYSNILGEENTYLWRTSLYLASSASAEFFADIALAPMEAAKVRIQTQPGYANTLREAVPKMYKEEGLNAFYKGVAPLWMRQIPYTMMKFACFERTVEALYKFVVPKPRSECTKAEQLVVTFVAGYIAGVFCAIVSHPADSVVSVLNKEKGSTASQVLQRLGFRGVWKGLFARIIMIGTLTALQWFIYDSVKVYFRLPRPPPPEMPESLKKKLGLTE | – | – | – | binds |

The remaining lines, values ahead:

| binding [1] | binding (bioGFP-tagged OPTN E478G) | binding [2] | binding (bioGFP-tagged C9orf72) | Binder |
| --- | --- | --- | --- | --- |
| binds | – | – | – | Huntingtin-associated protein 1 (Hap1) (protein, UniProt O35668 1-628) MRPKEQVQSGAGDGTGSGDPAAGTPTTQPAVGPAPEPSAEPKPAPAQGTGSGQKSGSRTKTGSFCRSMIIGDSDAPWTRYVFQGPYGPRATGLGTGKAEGIWKTPAAYIGRRPGVSGPERAAFIRELQEALCPNPPPTKKITEDDVKVMLYLLEEKERDLNTAARIGQSLVKQNSVLMEENNKLETMLGSAREEILHLRKQVNLRDDLLQLYSDSDDDDDEEDEEDEEEGEEEEREGQRDQDQQHDHPYGAPKPHPKAETAHRCPQLETLQQKLRLLEEENDHLREEASHLDNLEDEEQMLILECVEQFSEASQQMAELSEVLVLRLEGYERQQKEITQLQAEITKLQQRCQSYGAQTEKLQQMLASEKGIHSESLRAGSYMQDYGSRPRDRQEDGKSHRQRSSMPAGSVTHYGYSVPLDALPSFPETLAEELRTSLRKFITDPAYFMERRDTHCREGRKKEQRAMPPPPAQDLKPPEDFEAPEELVPEEELGAIEEVGTAEDGQAEENEQASEETEAWEEVEPEVDETTRMNVVVSALEASGLGPSHLDMKYVLQQLSNWQDAHSKRQQKQKVVPKDSPTPQQQTNMGGGILEQQPRVPTQDSQRLEEDRATHSPSAREEEGPSGAT |
| – | no binding | binds | – | Dolichyl-diphospho-oligosaccharideprotein glycosyltransferase subunit 1 (Rpn1) (protein, UniProt Q91YQ5 26-608) SSEAPPLVNEDVKRTVDLSSHLAKVTAEVVLVHPGGGSTSRASSFVLALEPELESRLAHLGVQIKGEDEEDNNLEVRETKIKGKSGRFFTVKLPVALDPGSKISVVVETVYTHVLHPYPTQITQSEKQFVVFEGNHYFYSPYPTKTQTMRVKLASRNVESYTKLGNPSRSEDVLDYGPFKDIPAYSQDTFKVHYENNSPFLTITSMTRVIEVSHWGNIAVEENVDLKHTGAVLKGPFSRYDYQRQPDSGISSIRSFKTILPAAAQDVYYRDEIGNVSTSHLLILDDSVEMEIRPRFPLFGGWKTHYIVGYNLPSYEYLYNLGDQYALKMRFVDHVFDEQVIDSLTVKIILPEGAKNIQVDSPYDISRAPDELHYTYLDTFGRPVIVAYKKNLVEQHIQDIVVHYTFNKVLMLQEPLLVVAAFYILFFTVIIYVRLDFSITKDPAAEARMKVACITEQVLTLVNKRLGLYRHFDETVNRYKQSRDISTLNSGKKSLETEHKAVTSEIAVLQSRLKTEGSDLCDRVSEMQKLDAQVKELVLKSAVEAERLVAGKLKKDTYLENEKLSSGKRQELVTKIDHILDAL |
| binds | no binding | binds | – | TBC1 domain family member 15 (Tbc1d15) (protein, UniProt Q9CXF4 1-671) MAAAGVVSGKIIYEQEGVYIHSSCGKANDQDSLISGILRVLEKDAEVIVDWRPLDDALDSSSILCAGKDSSSVVEWTQAPKERAHRGSDQQSSYEAEWDMVTTVSFKKKPHTNGDAPGHRNGKSKWSFLFSLADLKSVKQSKEGMGWSYLVFCLKDDVMLPALHFHQGDSKLLIESLEKYVVLCESPQDSRTLLVNCQNKSLSQSFENLLDEPAYGLIQKIKKDPYTATMVGFSKVTNYIFDSLRGSDPSTHQRPPSEMADFLSDAIPGLKINQQEEPGFEVITRIDLGERPVVQRREPVSLEEWNKSLDPEGRLVAVESMKQKIFRGGLSHSLRKQAWKFLLGYFPWDSTKEERTQLQKQKTDEYFRMKLQWKSVSEAQEKRNSRLRDYRSLIEKDVNRTDRTNKFYEGQDNPGLILLHDILMTYCMYDFDLGYVQGMSDLLSPLLYVMENEVDAFWCFASYMDQMHQNFEEQMQGMKTQLIQLSTLLRLLDSGFCSYLESQDSGYLYFCFRWLLIRFKREFSFLDILRLWEVMWTELPCKNFHLLLCCAILESEKQQIMAKHYGFNEILKHINELSMKIDVEDILCKAEAISLQMAQCKELPQAVCEILGLQDSEITTPDSDTDENVGSPCPVSAFPSSTLPILAASEAKDDSPTQTLASPNACRLTPA |
| – | – | – | binds | Slc25a4 (protein, UniProt P48962 1-298) MGDQALSFLKDFLAGGIAAAVSKTAVAPIERVKLLLQVQHASKQISAEKQYKGIIDCVVRIPKEQGFLSFWRGNLANVIRYFPTQALNFAFKDKYKQIFLGGVDRHKQFWRYFAGNLASGGAAGATSLCFVYPLDFARTRLAADVGKGSSQREFNGLGDCLTKIFKSDGLKGLYQGFSVSVQGIIIYRAAYFGVYDTAKGMLPDPKNVHIIVSWMIAQSVTAVAGLVSYPFDTVRRRMMMQSGRKGADIMYTGTLDCWRKIAKDEGANAFFKGAWSNVLRGMGGAFVLVLYDEIKKYV |
| – | – | – | binds | Slc25a5 (protein, UniProt P51881 1-298) MTDAAVSFAKDFLAGGVAAAISKTAVAPIERVKLLLQVQHASKQITADKQYKGIIDCVVRIPKEQGVLSFWRGNLANVIRYFPTQALNFAFKDKYKQIFLGGVDKRTQFWRYFAGNLASGGAAGATSLCFVYPLDFARTRLAADVGKAGAEREFKGLGDCLVKIYKSDGIKGLYQGFNVSVQGIIIYRAAYFGIYDTAKGMLPDPKNTHIFISWMIAQSVTAVAGLTSYPFDTVRRRMMMQSGRKGTDIMYTGTLDCWRKIARDEGSKAFFKGAWSNVLRGMGGAFVLVLYDEIKKYT |
